Laboratory results taken from paper PMC5078690.
Results are given in words; binding and its absence hold for the method and conditions named. In cells and extracts the contact can be indirect. Some binding calls cover weakened binding; strength is not graded here.

Sequences of proteins named here, by UniProt entry; tags and fusion partners are left off. Residues count along the entry.
UniProt P19491, residues 22-883: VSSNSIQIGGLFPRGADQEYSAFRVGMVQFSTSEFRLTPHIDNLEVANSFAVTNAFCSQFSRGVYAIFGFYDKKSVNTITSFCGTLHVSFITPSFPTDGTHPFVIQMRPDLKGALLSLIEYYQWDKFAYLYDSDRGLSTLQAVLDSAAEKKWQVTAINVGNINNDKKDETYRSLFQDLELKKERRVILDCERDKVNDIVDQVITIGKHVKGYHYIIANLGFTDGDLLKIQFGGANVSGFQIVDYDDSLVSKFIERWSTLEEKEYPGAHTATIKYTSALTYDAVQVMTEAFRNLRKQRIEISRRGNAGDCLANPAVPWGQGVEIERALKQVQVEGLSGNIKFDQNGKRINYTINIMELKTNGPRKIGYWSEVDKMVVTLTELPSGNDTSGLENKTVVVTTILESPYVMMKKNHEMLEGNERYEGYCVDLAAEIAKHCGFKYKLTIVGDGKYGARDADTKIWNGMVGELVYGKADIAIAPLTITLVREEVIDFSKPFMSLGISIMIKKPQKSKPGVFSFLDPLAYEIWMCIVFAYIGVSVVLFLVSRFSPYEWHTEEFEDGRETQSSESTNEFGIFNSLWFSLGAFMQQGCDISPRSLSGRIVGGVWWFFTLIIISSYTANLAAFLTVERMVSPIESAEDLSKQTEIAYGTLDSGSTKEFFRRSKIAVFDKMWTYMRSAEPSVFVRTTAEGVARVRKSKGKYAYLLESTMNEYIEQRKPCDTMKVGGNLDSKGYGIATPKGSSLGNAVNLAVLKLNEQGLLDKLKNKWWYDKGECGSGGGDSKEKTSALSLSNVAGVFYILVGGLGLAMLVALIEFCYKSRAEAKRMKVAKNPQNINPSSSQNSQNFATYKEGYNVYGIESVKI
UniProt P19490, residues 19-907: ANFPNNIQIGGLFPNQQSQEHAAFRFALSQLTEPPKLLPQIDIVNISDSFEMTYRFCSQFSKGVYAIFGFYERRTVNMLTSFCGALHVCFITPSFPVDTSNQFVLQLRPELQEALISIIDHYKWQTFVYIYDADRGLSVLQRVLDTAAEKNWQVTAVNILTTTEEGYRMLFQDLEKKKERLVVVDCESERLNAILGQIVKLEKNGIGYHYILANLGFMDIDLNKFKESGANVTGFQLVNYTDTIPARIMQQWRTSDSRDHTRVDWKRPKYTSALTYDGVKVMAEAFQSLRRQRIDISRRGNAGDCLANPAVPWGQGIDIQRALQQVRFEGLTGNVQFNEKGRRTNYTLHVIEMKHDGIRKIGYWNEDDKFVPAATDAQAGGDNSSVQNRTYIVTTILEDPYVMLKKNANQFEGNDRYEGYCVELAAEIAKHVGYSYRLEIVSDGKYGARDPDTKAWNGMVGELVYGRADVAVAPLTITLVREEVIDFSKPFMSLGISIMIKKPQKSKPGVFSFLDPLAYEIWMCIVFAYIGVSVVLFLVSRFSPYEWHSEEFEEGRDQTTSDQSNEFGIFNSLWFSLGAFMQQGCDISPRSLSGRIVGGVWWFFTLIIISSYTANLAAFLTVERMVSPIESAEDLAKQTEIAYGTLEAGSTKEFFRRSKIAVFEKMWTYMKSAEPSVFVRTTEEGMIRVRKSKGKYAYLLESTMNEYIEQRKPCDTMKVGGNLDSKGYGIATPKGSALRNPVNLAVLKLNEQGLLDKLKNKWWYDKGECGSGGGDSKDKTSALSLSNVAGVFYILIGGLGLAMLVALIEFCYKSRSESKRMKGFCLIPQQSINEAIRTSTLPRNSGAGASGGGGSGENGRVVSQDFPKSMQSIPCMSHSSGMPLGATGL
UniProt P84903, residues 23-685: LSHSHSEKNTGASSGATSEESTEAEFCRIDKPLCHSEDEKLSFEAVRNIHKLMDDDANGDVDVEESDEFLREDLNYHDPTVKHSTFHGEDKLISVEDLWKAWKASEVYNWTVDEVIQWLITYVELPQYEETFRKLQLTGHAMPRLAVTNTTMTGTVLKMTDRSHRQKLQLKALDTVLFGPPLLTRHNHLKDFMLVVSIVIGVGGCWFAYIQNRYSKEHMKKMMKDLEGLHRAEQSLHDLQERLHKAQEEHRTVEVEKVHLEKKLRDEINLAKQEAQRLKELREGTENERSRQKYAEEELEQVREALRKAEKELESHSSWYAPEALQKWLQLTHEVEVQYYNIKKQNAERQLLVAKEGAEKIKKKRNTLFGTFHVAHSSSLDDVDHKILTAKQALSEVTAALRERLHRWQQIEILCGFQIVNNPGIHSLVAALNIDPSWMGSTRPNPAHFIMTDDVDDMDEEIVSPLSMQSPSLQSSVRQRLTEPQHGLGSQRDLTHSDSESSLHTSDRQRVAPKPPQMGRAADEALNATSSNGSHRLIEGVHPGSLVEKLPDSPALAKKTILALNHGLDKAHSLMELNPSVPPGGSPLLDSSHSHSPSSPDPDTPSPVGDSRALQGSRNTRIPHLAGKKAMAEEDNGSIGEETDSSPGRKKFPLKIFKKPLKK

Key:
Assay in all cases: co-IP; endogenous proteins in lysates of 15-day-old rat primary cortical neurons treated with TG for 10 min; lysate buffer pH 7.5, 50 mM Tris-HCl, 150 mM NaCl, 0.1% SDS, 0.5% sodium deoxycholate, 1% NP-40; antibody (anti-STIM1, anti-STIM2, anti-GluA1 or anti-GluA2) on protein A-Sepharose, overnight at 4°C; Western blot; controls: lysate omitted, anti-Flag, IgG
[1] = biological target: AMPA receptor subunit GluA2 (rat (endogenous in primary cortical neurons)) (UniProt P19491)
[2] = biological target: AMPA receptor subunit GluA1 (rat (endogenous in primary cortical neurons)) (UniProt P19490)
[3] = biological target: stromal interaction molecule 1 (STIM1) (rat (endogenous in primary cortical neurons)) (UniProt P84903)

stromal interaction molecule 1 (STIM1) (from UniProt P84903 23-685)
binding [1]: binds | binding [2]: binds

AMPA receptor subunit GluA2 (from UniProt P19491 22-883)
binding [3]: binds

AMPA receptor subunit GluA1 (from UniProt P19490 19-907)
binding [3]: binds
